Laboratory results published in US20060140889A1.
Where a chain is given by its changes, count along the chain named. No constants are given. Whether binding was seen depends on the method and setting. Some results given as binding are weak or reduced against the parent protein; the word gives no strength.

B1: iMab135-xx-0001 (designed binder, not shown: small tags and cut ends)
chain: MNVQLVESGGNFVENDQDLSLTCRASGYTIGPYCMGWFRQAPNQDSTGVATINMGGGITYYGDSVKERFRIRRDNASNTVTLSMQNLQPQDSANYNCAADSTIYASYYECGHGLSTGGYGYDSRGQGTSVTVSS
B2: iMab136-xx-0001 (designed binder, not shown: small tags and cut ends)
chain: MNVKLVEKGGNFVENDDDLRLTCRAEGYTIGPYCMGWFRQAPNRDSTNVATINMGGGITYYGDSVKERFDIRRDNASNTVTLSMTNLQPSDSASYNCAADSTIYASYYECGHGLSTGGYGYDSRGQGTRVTVSS
B3: iMab137-xx-0001 (designed binder, not shown: small tags and cut ends)
chain: B1 chain with D18S, Q44S, D45R, E67G, R70T, Q85N, N86D, Q90R, N94Q, S129D

Target: chicken lysozyme (chicken) (UniProt P00698)
Experiment: ELISA as in Example 8

binding, binds:
B1
B2
B3
